# Source: PubChem BioAssay AID1259405 (NCATS, 2018)
# Test: 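Mouse-designed siRNAs used to find CHO productivity engineering targets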 (primary screen)
# System: Chinese hamster CHO-K1 ovary cells with stable secreted eGFP expression
# Reagent: single siRNA against mouse genes, 0.8 pmol siRNA per well (2 µl of 400 nM stock)
# Timing: 3 days
# Detection: 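Percent of the per-plate non-targeting control median for intracellular GFP per well by laser scanning cytometry and for cell viability by ATP luminescence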
# Direction: GFP, % of control: higher = more GFP per well, higher productivity; viability (ATP), % of control: higher = more viable cells (more ATP)
# Rule for the call: 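a knock-down is called active if GFP reaches 120% or more of non-targeting control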
# In all, the deposit lists about 50,000 reagents; shown is an unselected part. Over the whole deposit, about 4,000 (8%) were called active. 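Mouse siRNA library applied to hamster cells; one well for each siRNA.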 The numbers tell different reagents against one gene apart.
"GFP, % of control","viability (ATP), % of control",call,target,siRNA no.
82.7,82.4,inactive,Bik (BCL2-interacting killer),1
60.3,85.1,inactive,Bik (BCL2-interacting killer),2
63.4,68.2,inactive,G2e3 (G2/M-phase specific E3 ubiquitin ligase),1
56.6,45.8,inactive,G2e3 (G2/M-phase specific E3 ubiquitin ligase),2
90.3,91,inactive,G2e3 (G2/M-phase specific E3 ubiquitin ligase),3
69.2,31.1,inactive,Wdr36 (WD repeat domain 36),1
85.1,59.4,inactive,Wdr36 (WD repeat domain 36),2
119,50.9,inactive,Wdr36 (WD repeat domain 36),3
73.5,47.7,inactive,Elk1 (ETS transcription factor ELK1),1
79.6,56.4,inactive,Elk1 (ETS transcription factor ELK1),2
92.1,98,inactive,Elk1 (ETS transcription factor ELK1),3
111,107,inactive,Neurod1 (neurogenic differentiation 1),1
83.6,91.3,inactive,Neurod1 (neurogenic differentiation 1),2
79.4,110,inactive,Neurod1 (neurogenic differentiation 1),3
120,98.1,inactive,Wfikkn2,1
85.5,64.2,inactive,Wfikkn2,2
96.7,69,inactive,Wfikkn2,3
87.3,104,inactive,"Tnfaip2 (tumor necrosis factor, alpha-induced protein 2)",1
107,108,inactive,"Tnfaip2 (tumor necrosis factor, alpha-induced protein 2)",2
181,113,active,"Tnfaip2 (tumor necrosis factor, alpha-induced protein 2)",3
77.6,57.6,inactive,Vmn1r89 (vomeronasal 1 receptor 89),1
73.2,47.1,inactive,Vmn1r89 (vomeronasal 1 receptor 89),2
108,106,inactive,Vmn1r89 (vomeronasal 1 receptor 89),3
60,92.9,inactive,Fcgbpl1 (Fc fragment of IgG binding protein like 1),1
88.6,85.2,inactive,Fcgbpl1 (Fc fragment of IgG binding protein like 1),2
73.3,84.2,inactive,Fcgbpl1 (Fc fragment of IgG binding protein like 1),3
65.9,34.5,inactive,Vmn1r231 (vomeronasal 1 receptor 231),1
77.3,72.9,inactive,Vmn1r231 (vomeronasal 1 receptor 231),2
66.9,74.9,inactive,Vmn1r231 (vomeronasal 1 receptor 231),3
52.9,45.7,inactive,"Ugt1a5 (UDP glucuronosyltransferase 1 family, polypeptide A5)",1
49.2,77.1,inactive,"Ugt1a5 (UDP glucuronosyltransferase 1 family, polypeptide A5)",2
47.6,61.2,inactive,"Ugt1a5 (UDP glucuronosyltransferase 1 family, polypeptide A5)",3
102,136,inactive,Tifa (TRAF-interacting protein with forkhead-associated domain),1
149,128,active,Tifa (TRAF-interacting protein with forkhead-associated domain),2
155,121,active,Tifa (TRAF-interacting protein with forkhead-associated domain),3

Records listed above marked active (3):
"GFP, % of control","viability (ATP), % of control",call,target,siRNA no.
181,113,active,"Tnfaip2 (tumor necrosis factor, alpha-induced protein 2)",3
149,128,active,Tifa (TRAF-interacting protein with forkhead-associated domain),2
155,121,active,Tifa (TRAF-interacting protein with forkhead-associated domain),3
